Assay results taken from paper PMC5662751.

Chains of the proteins cited; added tags and fusions are not shown.
UniProt Q8CJG0: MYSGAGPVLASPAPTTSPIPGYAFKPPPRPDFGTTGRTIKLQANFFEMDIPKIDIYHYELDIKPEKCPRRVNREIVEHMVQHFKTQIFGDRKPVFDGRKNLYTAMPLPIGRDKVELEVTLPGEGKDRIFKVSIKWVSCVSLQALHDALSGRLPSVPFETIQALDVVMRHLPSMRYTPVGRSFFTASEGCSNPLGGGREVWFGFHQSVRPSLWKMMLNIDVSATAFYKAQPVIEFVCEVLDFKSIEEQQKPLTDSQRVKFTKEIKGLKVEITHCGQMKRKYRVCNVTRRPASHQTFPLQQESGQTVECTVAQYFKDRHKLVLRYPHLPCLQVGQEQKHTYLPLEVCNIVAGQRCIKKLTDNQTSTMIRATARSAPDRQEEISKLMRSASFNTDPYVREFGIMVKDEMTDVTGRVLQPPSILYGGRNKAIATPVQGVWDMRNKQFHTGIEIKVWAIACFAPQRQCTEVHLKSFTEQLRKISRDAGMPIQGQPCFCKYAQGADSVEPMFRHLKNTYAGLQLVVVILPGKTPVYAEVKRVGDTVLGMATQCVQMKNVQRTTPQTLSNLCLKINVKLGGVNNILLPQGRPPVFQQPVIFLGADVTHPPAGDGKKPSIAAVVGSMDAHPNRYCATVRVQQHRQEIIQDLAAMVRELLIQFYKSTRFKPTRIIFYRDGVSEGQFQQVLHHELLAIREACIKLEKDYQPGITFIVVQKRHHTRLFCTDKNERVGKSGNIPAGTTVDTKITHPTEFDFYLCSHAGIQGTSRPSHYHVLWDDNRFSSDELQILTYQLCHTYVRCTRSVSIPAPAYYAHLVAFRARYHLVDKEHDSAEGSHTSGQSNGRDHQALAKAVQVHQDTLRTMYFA

Molecular target: Argonaute 2 (Ago2), mouse, endogenous (mouse (endogenous in RAW 264.7 and P19)) (UniProt Q8CJG0)
Assay: affinity purification with mass spectrometry; IP of endogenous Ago2 (anti-Ago2) from mouse RAW 264.7 cell extracts, undigested or totally digested with RNase A (10 mg/ml, 30 min, room temperature); label-free quantitative LC-MS/MS; IgG IP as control

binding: no binding
B1: Trans-Activation Responsive RNA-Binding Protein 2 (Trbp2), mouse, endogenous (protein, UniProt P97473 1-365)
chain: MSEEDQGSGTTTGCGLPSIEQMLAANPGKTPISLLQEYGTRIGKTPVYDLLKAEGQAHQPNFTFRVTVGDTSCTGQGPSKKAAKHKAAEVALKHLKGGSMLEPALEDSSSFSLLDSSPPEDTPVVAAEAAAPVPSAVLTRSPPMEMQPPVSPQQSECNPVGALQELVVQKGWRLPEYMVTQESGPAHRKEFTMTCRVERFIEIGSGTSKKLAKRNAAAKMLLRVHTVPLDARDGNEAEPDDDHFSIGVSSRLDGLRNRGPGCTWDSLRNSVGEKILSLRSCSVGSLGALGSACCSVLSELSEEQAFHVSYLDIEELSLSGLCQCLVELSTQPATVCYGSATTREAARGDAAHRALQYLRIMAGSK

These are yes or no findings as the source states them, for the method shown. Binding seen in cells or lysates may run through a third protein. These calls come from enrichment with a bait or labelling near it, and not all partners need be listed. A no says only that the protein was not detected with the bait.
